Reference: PMC11218660, “Functional dissection of human cardiac enhancers and noncoding de novo variants in congenital heart disease”

Sequences of proteins named here, by UniProt entry; tags and fusion partners are left off. A change or cut given only in a name is not applied to a line headed by its entry.
UniProt Q9UMR3: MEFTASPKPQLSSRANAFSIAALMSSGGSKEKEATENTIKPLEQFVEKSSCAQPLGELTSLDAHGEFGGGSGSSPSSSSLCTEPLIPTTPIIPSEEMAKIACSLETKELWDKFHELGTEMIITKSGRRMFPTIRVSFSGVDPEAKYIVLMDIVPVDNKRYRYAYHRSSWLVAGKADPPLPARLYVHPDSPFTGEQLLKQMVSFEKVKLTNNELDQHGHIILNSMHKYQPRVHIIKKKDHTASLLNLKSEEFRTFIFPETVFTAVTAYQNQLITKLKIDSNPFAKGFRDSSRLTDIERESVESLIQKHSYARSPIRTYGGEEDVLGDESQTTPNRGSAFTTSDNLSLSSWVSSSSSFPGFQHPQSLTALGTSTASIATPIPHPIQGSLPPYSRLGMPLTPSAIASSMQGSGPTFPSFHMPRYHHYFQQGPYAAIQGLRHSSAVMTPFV
UniProt Q96JB3: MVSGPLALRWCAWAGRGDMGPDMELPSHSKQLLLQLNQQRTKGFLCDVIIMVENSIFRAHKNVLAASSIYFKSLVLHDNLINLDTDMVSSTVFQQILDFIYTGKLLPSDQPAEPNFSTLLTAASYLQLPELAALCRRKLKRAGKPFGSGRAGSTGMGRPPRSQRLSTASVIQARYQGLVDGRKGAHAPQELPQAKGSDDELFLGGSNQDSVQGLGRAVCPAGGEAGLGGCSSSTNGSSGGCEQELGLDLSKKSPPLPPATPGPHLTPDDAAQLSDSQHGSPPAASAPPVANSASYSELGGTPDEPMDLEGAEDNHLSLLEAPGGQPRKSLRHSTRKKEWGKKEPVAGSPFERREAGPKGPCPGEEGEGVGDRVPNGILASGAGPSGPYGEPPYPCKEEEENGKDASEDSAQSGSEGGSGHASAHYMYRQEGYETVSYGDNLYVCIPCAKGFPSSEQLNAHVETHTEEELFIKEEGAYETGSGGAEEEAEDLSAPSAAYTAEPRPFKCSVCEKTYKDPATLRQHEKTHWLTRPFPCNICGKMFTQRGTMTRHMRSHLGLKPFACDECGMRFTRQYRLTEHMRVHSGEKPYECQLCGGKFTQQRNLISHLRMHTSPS
UniProt Q15796: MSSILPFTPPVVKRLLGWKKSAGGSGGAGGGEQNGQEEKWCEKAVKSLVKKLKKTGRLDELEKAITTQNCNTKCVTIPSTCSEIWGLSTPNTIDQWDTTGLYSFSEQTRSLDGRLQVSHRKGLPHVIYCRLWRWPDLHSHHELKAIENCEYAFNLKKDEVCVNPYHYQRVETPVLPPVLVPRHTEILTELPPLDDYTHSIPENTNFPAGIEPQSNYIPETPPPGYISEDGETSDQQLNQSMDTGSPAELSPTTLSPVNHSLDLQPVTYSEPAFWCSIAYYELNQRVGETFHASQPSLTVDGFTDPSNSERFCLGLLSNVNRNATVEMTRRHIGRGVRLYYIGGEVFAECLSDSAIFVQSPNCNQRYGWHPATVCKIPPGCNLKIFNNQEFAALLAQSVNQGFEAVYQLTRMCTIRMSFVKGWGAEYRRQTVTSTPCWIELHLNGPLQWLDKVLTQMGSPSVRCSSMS

Assays:
Assay in all cases: EMSA
Conditions in all cases: EMSA: 150 mM KCl, 0.1 mM DTT, 0.1 mM EDTA, 10 mM Tris pH 7.4; 500-800 fmol probe, 0.1-2.0 ug protein in 15-20 ul; room temperature 20 min; 6% native PAGE; recombinant protein
TBX20 (human) = TBX20 (human) (UniProt Q9UMR3)
HIC2 (human) = HIC2 (human) (UniProt Q96JB3)
SMAD2 (human) = SMAD2 (human) (UniProt Q15796)
SRF (human) = target: T1, SRF (human) (UniProt P11831)
T1 sequence (looked up, limits assumed): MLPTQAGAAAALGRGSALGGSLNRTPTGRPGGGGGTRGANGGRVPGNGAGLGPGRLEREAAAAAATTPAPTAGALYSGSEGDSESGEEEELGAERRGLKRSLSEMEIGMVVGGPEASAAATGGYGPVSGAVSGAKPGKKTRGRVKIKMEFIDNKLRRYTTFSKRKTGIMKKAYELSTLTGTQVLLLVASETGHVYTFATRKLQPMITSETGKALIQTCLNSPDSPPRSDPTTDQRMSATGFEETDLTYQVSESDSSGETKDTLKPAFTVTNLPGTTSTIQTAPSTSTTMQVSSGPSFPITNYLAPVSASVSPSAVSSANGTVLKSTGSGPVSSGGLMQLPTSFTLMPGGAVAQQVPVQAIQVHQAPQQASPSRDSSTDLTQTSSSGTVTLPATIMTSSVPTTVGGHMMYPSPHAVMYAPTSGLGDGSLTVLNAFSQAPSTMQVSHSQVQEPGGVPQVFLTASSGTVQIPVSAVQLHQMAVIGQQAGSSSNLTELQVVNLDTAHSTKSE

Question: Does “GACTTGGTTTCCCATCTTTAAAGGG (double strand) [PIP4K2A-CRE REF]” bind (TBX20 (human))?
Answer: binds more weakly

Question: Does “GACTTGGTTTCCCACCTTTAAAGGG (double strand) [PIP4K2A-CRE ALT]” bind (TBX20 (human))?
Answer: binds

Question: Does “CCTGGTTCAGTTCTGCTACGCACCAGAGGGGTGATCTTG (double strand) [ACVRL1-CRE ALT]” bind (HIC2 (human))?
Answer: binds more weakly

Question: Does “CCTGGTTCAGTTCTGCTACCCACCAGAGGGGTGATCTTG (double strand) [ACVRL1-CRE REF]” bind (HIC2 (human))?
Answer: binds

Question: Does “TTTAGACATGCACACTTCATGTATG (double strand) [MYOCD-CRE ALT]” bind (TBX20 (human))?
Answer: binds

Question: Does “GTATATGGCAGATGCGCCTGACAGCAATAACTGAAGAAT (double strand) [BCOR-CRE REF]” bind (SMAD2 (human))?
Answer: binds

Question: Does “AATGCATCTGCTTGCTTCACTTGGCAGATTCCTCAAGAGT (double strand) [ADAMTS6-CRE REF]” bind (SRF (human))?
Answer: binds more weakly

Question: Does “GAGGGAGGGGAGAAAATAGTATCGC (double strand) [GLB1L3-CRE ALT]” bind (SRF (human))?
Answer: binds more weakly

Question: Does “TTTAGACATGCATACTTCATGTATG (double strand) [MYOCD-CRE REF]” bind (TBX20 (human))?
Answer: binds more weakly

Question: Does “GTATATGGCAGATGCGCTTGACAGCAATAACTGAAGAAT (double strand) [BCOR-CRE ALT]” bind (SMAD2 (human))?
Answer: binds more weakly

The exact form of at least one protein or probe is not confirmed. Weaker means in comparison with the reference protein, sequence or condition of that experiment. For some of these results: Where a protein sequence is shown, tags need not be part of it.
